Test results taken from patent publication US7375232B2, “Ortho-heterocyclic substituted aryl amides for controlling invertebrate pests” (E.I. du Pont de Nemours and Company, priority 2001, dated 2008).
Some entries share one result that the patent states for a list of compounds.

Tested on: diamondback moth (Plutella xylostella)
Experiment: Test A: control of diamondback moth on radish plant, foliar spray, visual feeding damage
Type: in vivo
Details: tested at 50 ppm (starred), neonate larvae, assessed after 6 days at 25° C.

O=C(Nc1c(Cl)cc(Cl)cc1C1=NCCN1)c1cc(C(F)(F)F)nn1-c1ncccc1Cl [Compound 5, 1-(3-Chloro-2-pyridinyl)-N-[2.4-dichloro-6-(4,5-dihydro-1H-imidazol-2-yl)phenyl]-3-(trifluoromethyl)-1H-pyrazole-5-carboxamide]
plant protection (feeding damage): ≤ 20%
